These are yes or no findings as the source states them, for the method shown.

Chains of the proteins cited; added tags and fusions are not shown. Lines headed by an entry give the natural chain unless they say otherwise; changes in a name come on top.
UniProt P40692: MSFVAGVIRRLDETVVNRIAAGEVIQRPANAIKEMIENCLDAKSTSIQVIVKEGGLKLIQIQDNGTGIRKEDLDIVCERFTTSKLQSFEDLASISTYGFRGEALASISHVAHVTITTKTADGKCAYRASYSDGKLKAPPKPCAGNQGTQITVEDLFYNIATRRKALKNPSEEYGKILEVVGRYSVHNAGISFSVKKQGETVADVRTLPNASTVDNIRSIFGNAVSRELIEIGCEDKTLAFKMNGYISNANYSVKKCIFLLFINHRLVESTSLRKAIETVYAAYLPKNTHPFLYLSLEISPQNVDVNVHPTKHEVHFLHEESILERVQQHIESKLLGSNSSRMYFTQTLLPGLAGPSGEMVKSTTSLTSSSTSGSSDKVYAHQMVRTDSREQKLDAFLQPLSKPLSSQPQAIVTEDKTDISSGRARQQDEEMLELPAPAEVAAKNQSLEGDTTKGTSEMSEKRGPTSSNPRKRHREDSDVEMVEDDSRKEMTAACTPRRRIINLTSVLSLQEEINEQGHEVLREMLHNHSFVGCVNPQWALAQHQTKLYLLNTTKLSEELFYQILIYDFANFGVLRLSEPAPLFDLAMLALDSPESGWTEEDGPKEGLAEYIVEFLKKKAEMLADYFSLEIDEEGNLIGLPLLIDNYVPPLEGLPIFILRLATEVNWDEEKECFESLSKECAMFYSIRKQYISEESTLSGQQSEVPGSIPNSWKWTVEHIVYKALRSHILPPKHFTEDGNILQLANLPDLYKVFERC
UniProt P54278: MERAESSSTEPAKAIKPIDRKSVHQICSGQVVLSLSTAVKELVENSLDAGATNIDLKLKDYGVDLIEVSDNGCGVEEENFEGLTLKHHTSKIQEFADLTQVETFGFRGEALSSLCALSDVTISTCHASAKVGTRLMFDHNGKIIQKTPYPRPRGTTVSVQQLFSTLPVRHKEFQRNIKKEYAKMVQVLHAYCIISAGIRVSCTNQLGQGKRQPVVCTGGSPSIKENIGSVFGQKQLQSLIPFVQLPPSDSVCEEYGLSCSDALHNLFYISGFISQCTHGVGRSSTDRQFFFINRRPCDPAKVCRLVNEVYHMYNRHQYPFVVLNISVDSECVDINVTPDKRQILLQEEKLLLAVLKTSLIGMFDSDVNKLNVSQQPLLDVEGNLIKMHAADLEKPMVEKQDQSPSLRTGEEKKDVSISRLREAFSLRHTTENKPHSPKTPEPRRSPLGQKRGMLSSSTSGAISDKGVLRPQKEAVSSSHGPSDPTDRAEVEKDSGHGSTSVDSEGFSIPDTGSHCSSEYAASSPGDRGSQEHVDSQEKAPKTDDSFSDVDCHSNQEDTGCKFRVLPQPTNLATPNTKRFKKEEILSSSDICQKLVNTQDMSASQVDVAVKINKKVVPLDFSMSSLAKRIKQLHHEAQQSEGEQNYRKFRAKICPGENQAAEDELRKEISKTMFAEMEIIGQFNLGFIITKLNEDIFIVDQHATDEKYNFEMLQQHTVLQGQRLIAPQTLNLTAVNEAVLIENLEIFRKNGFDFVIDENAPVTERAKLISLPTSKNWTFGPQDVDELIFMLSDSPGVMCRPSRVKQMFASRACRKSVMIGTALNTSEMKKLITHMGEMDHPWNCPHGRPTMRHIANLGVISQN

The values that follow come from PMC9036127.

The test deals with Human MutLα (MLH1-PMS2 heterodimer) (human) (UniProt P40692+P54278). Put plainly: co-IP; purified proteins; MutSα- or MutLα-containing agarose beads (antibodies against MSH2 or MLH1), DNA2 in solution; for MutSα 30-μl mixtures with MutSα (3.4 pmol) and DNA2 (3.4 pmol); eluted fractions analyzed by immunoblotting; both purified. On the technique in general: In western blotting, separated proteins are transferred to a membrane and probed.

B1: Human DNA2 nuclease/helicase (enzyme, UniProt P51530 1-1060)
chain: MEQLNELELLMEKSFWEEAELPAELFQKKVVASFPRTVLSTGMDNRYLVLAVNTVQNKEGNCEKRLVITASQSLENKELCILRNDWCSVPVEPGDIIHLEGDCTSDTWIIDKDFGYLILYPDMLISGTSIASSIRCMRRAVLSETFRSSDPATRQMLIGTVLHEVFQKAINNSFAPEKLQELAFQTIQEIRHLKEMYRLNLSQDEIKQEVEDYLPSFCKWAGDFMHKNTSTDFPQMQLSLPSDNSKDNSTCNIEVVKPMDIEESIWSPRFGLKGKIDVTVGVKIHRGYKTKYKIMPLELKTGKESNSIEHRSQVVLYTLLSQERRADPEAGLLLYLKTGQMYPVPANHLDKRELLKLRNQMAFSLFHRISKSATRQKTQLASLPQIIEEEKTCKYCSQIGNCALYSRAVEQQMDCSSVPIVMLPKIEEETQHLKQTHLEYFSLWCLMLTLESQSKDNKKNHQNIWLMPASEMEKSGSCIGNLIRMEHVKIVCDGQYLHNFQCKHGAIPVTNLMAGDRVIVSGEERSLFALSRGYVKEINMTTVTCLLDRNLSVLPESTLFRLDQEEKNCDIDTPLGNLSKLMENTFVSKKLRDLIIDFREPQFISYLSSVLPHDAKDTVACILKGLNKPQRQAMKKVLLSKDYTLIVGMPGTGKTTTICTLVRILYACGFSVLLTSYTHSAVDNILLKLAKFKIGFLRLGQIQKVHPAIQQFTEQEICRSKSIKSLALLEELYNSQLIVATTCMGINHPIFSRKIFDFCIVDEASQISQPICLGPLFFSRRFVLVGDHQQLPPLVLNREARALGMSESLFKRLEQNKSAVVQLTVQYRMNSKIMSLSNKLTYEGKLECGSDKVANAVINLRHFKDVKLELEFYADYSDNPWLMGVFEPNNPVCFLNTDKVPAPEQVEKGGVSNVTEAKLIVFLTSIFVKAGCSPSDIGIIAPYRQQLKIINDLLARSIGMVEVNTVDKYQGRDKSIVLVSFVRSNKDGTVGELLKDWRRLNVAITRAKHKLILLGCVPSLNCYPPLEKLLNHLNSEKLIIDLPSREHESLCHILGDFQRE
As for B1, the binding entry was “no binding”.
